The text below walks through data of US20260144808.

Protein sequences, listed by entry. Tags and fused reporters are not part of them.
UniProt Q9UER7, whole entry: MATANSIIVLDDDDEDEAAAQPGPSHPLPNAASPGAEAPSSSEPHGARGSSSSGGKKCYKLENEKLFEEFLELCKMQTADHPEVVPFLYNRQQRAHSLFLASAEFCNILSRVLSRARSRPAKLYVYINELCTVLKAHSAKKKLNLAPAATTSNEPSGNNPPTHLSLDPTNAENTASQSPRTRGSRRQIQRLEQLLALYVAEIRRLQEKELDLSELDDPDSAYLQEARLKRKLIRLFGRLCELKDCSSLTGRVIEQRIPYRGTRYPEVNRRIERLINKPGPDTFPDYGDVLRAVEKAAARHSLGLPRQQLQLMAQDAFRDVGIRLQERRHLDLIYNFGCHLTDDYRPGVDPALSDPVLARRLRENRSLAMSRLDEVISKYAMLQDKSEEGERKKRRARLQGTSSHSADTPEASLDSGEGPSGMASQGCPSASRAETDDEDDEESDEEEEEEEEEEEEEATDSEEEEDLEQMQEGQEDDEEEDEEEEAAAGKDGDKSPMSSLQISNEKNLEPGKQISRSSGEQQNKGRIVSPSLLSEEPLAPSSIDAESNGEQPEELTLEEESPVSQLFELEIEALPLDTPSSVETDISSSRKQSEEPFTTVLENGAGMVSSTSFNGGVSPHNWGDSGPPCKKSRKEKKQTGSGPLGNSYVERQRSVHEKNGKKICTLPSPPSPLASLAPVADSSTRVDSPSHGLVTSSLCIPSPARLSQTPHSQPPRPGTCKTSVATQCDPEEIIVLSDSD

For series [1], the target named is DAXX (endogenous) (Homo sapiens) (UniProt Q9UER7). Put plainly: pull-down. As to conditions: protein in an extract, label: 3' biotin on forward strand.
A further series deals with DAXX (Homo sapiens) (UniProt Q9UER7). Put plainly: EMSA. The conditions noted are these: length-matched random control; same buffer; purified recombinant protein; label: 5' Alexa Fluor 488 on one strand.

A weaker result is weaker than the reference pair of the same experiment. For part of these data: Construct, isoform or probe ends are uncertain for at least one entry. For part of these data: Where cells or extracts were used, other partners may take part.

Consider “GACTGACTGATAGATCCTAAGTACTGATTACTGACTAACAAC (double strand) [random control dsDNA 42 bp]”, for which the binding result in series [1] (random control, DAXX enriched on (G4C2)6 relative to this) is recorded as “binds more weakly”.

Take “GACTGACTGATAGATCCTAAGTACTGATTACTGACTATAGATCTAAGTCATGATCAGTTA (double strand) [random control dsDNA 60 bp]”: in the series with DAXX (Homo sapiens), the binding result was “binds more weakly”. For “GGGGCCGGGGCCGGGGCCGGGGCCGGGGCCGGGGCCAACAAC (double strand) [(G4C2)6 dsDNA]”, the binding result in series [1] (SILAC MS top-ranked and immunoblot, PBS pH 7.4, 0.01% Tween-20, 4 C 2 h) is “binds”.
